Drawing on publication PMC10831774, this text covers binding for 13 substances.

Chains of the proteins cited; added tags and fusions are not shown. Lines headed by an entry give the natural chain unless they say otherwise; changes in a name come on top.
UniProt P03372: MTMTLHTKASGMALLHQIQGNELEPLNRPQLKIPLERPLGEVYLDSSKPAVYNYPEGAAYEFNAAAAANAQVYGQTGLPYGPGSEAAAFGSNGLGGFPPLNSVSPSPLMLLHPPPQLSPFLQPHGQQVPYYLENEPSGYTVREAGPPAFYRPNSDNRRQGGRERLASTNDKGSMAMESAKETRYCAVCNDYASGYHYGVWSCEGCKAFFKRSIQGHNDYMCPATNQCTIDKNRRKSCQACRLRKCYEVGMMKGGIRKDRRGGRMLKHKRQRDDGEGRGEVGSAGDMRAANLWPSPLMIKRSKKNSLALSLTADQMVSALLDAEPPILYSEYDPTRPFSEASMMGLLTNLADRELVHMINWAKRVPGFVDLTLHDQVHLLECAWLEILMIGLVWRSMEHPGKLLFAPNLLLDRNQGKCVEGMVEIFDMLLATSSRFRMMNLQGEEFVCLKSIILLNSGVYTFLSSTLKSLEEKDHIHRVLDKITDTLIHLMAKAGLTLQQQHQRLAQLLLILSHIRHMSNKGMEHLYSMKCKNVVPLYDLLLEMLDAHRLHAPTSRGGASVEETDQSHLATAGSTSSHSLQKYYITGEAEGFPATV
UniProt Q92925: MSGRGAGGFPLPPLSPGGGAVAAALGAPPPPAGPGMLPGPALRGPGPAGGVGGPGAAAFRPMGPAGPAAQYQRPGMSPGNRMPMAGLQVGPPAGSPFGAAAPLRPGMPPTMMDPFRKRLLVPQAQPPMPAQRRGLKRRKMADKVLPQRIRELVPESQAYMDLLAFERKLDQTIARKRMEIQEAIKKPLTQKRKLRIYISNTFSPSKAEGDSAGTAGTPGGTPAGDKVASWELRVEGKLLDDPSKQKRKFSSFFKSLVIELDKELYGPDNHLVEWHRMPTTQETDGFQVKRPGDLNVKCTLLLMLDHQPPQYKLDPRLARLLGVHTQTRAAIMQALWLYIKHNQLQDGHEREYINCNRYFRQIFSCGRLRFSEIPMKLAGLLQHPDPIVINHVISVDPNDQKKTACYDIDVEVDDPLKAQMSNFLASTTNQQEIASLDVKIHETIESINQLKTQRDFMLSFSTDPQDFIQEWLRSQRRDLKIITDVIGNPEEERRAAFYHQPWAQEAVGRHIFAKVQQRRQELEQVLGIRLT
UniProt Q969G3: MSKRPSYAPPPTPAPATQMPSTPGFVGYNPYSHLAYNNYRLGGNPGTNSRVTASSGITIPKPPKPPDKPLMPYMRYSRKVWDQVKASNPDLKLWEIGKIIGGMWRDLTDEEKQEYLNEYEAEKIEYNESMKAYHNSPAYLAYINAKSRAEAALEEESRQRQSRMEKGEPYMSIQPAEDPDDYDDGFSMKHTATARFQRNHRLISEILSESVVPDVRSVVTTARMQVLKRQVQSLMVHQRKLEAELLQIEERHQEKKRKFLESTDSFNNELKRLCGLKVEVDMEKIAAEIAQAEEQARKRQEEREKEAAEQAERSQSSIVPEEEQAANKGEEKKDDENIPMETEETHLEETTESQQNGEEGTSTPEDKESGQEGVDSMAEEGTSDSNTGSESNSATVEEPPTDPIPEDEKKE
UniProt Q13185: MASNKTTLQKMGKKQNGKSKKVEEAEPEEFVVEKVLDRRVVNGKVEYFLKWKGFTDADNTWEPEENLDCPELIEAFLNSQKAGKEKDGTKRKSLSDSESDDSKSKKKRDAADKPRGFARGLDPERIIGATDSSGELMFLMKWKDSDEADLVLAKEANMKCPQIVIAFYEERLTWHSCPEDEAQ
UniProt Q96RL1: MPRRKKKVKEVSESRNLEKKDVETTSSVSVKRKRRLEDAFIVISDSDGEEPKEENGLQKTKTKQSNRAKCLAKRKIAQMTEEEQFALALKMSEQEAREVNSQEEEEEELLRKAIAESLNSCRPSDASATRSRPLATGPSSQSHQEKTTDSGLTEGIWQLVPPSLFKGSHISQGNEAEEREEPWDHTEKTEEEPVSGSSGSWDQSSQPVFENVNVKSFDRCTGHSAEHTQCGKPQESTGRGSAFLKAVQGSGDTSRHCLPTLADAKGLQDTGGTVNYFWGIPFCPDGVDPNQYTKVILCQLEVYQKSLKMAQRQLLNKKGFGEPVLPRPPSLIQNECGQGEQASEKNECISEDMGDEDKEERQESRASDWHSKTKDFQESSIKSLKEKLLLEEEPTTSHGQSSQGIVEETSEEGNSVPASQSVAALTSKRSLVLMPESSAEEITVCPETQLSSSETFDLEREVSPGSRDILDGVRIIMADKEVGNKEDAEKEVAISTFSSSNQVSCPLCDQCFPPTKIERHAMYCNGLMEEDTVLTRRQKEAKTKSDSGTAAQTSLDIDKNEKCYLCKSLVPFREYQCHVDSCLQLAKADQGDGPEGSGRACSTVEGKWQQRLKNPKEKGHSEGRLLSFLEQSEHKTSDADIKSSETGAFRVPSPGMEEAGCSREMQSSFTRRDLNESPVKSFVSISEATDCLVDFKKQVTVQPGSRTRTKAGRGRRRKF
UniProt Q92841: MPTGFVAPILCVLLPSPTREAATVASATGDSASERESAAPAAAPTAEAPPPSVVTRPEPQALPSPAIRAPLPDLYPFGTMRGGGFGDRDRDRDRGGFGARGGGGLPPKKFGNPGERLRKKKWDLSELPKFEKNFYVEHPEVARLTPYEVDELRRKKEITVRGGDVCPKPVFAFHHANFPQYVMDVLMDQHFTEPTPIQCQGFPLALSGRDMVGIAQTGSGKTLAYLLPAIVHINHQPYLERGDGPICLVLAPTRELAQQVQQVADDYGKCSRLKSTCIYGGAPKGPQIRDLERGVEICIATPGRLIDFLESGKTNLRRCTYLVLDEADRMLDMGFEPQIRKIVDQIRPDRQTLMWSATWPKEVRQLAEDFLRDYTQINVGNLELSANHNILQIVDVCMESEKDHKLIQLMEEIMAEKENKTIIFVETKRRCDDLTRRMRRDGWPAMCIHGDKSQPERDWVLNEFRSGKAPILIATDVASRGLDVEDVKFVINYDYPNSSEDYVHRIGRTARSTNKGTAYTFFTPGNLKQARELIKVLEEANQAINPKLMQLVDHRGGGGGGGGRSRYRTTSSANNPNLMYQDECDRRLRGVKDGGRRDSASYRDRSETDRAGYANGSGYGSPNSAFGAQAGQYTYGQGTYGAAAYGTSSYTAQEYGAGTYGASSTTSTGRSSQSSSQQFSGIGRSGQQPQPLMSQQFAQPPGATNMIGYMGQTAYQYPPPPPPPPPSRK
UniProt Q8IZL8: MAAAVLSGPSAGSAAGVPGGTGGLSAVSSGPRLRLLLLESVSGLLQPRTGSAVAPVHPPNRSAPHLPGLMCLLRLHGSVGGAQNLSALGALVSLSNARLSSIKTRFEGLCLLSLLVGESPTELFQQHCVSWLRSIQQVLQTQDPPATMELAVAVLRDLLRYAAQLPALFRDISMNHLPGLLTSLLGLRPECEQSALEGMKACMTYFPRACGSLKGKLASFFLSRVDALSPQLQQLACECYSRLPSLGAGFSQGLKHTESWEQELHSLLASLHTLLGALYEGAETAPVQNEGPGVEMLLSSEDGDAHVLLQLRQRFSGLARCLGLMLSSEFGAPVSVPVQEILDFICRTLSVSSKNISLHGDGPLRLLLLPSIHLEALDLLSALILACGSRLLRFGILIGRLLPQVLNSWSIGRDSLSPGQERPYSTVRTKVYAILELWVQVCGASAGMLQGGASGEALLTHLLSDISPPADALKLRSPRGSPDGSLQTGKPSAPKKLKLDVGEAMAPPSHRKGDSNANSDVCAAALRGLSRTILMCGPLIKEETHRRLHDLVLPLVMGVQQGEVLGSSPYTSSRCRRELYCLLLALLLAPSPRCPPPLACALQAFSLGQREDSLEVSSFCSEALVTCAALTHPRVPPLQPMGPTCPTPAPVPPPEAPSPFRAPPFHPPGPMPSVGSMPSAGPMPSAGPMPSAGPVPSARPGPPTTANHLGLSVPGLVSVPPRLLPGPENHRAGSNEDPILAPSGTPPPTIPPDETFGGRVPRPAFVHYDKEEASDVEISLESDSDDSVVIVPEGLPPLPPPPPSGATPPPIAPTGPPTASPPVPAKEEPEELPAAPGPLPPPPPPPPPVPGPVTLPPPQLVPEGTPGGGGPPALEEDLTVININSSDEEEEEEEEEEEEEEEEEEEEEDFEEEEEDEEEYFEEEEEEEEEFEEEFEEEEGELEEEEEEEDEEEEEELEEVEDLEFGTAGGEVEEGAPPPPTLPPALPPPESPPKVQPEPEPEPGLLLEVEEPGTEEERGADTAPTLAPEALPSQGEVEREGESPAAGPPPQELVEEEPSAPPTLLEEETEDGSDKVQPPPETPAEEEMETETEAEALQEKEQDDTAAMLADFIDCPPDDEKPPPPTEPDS
UniProt O15047: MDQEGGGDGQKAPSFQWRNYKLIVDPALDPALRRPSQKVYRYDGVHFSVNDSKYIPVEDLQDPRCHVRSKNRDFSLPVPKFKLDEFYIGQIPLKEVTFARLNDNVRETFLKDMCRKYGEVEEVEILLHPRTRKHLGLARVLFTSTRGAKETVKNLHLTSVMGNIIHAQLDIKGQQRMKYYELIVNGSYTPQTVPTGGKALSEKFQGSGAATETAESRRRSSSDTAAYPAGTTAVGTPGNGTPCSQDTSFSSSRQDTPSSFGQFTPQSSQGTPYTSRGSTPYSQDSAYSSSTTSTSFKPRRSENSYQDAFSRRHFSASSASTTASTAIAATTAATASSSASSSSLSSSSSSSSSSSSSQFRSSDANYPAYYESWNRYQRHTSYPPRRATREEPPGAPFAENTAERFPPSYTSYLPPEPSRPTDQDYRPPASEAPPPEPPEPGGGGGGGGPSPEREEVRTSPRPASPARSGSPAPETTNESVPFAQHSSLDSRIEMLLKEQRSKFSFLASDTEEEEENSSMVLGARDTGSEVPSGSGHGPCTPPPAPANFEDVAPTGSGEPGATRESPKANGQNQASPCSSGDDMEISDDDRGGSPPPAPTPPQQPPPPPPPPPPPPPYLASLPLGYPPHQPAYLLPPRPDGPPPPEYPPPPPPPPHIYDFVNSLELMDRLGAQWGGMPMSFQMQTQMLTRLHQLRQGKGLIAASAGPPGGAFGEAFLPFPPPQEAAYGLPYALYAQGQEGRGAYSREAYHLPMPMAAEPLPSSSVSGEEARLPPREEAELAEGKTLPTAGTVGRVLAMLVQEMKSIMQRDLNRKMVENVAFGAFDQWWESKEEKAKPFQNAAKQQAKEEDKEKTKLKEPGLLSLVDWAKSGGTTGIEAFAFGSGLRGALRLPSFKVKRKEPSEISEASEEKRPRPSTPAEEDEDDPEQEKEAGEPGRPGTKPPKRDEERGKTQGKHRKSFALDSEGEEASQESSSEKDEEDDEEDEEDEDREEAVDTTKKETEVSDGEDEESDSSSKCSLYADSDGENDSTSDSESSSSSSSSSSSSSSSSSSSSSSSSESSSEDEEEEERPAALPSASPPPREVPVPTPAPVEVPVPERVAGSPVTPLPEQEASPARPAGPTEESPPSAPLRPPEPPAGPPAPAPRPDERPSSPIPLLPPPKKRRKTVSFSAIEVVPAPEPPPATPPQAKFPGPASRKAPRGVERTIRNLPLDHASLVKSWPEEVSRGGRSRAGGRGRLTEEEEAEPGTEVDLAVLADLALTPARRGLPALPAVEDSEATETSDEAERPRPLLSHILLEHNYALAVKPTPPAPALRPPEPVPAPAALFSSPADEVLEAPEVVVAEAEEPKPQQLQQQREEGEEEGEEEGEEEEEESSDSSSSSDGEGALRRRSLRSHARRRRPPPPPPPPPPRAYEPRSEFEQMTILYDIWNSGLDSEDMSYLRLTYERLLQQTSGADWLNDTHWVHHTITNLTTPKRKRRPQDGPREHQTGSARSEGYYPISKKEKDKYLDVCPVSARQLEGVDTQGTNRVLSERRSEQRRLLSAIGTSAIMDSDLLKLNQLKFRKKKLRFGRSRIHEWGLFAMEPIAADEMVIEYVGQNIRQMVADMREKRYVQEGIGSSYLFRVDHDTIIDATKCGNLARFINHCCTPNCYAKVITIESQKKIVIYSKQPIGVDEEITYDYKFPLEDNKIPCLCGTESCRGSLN
UniProt Q06587: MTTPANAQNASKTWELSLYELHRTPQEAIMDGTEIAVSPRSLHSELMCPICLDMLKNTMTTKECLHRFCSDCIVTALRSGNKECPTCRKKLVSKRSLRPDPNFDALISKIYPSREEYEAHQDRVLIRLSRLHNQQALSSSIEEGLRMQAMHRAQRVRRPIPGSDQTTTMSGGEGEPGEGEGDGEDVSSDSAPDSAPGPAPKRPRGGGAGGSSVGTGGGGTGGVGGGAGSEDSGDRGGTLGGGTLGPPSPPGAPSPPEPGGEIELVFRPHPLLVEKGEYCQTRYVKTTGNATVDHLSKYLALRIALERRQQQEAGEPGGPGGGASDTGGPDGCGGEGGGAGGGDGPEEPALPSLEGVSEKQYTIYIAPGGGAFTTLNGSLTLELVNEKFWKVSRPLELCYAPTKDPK

Results are given in words; binding and its absence hold for the method and conditions named. Binding seen in cells or lysates may run through a third protein. These calls come from enrichment with a bait or labelling near it, and not all partners need be listed.

Experiment [1] deals with ERα^Y537C, endogenous in MCF7-LTED^Y537C cells (human (endogenous in MCF7-LTED^Y537C)) (UniProt P03372). Briefly: proximity labelling; ERα BAR TMT: endogenous ERα targeted with 6F11 in fixed MCF7-wt, MCF7-LTED^wt and MCF7-LTED^Y537C cells; streptavidin beads, TMTpro-16 plex MS, n = 2; controls: tubulin BAR (spatial) and primary antibody omitted.
For experiment [2], the target named is Estrogen receptor α (ERα), endogenous (human (endogenous in MCF7)) (UniProt P03372). Described as above.
Experiment [3] shares this target. Briefly: proximity labelling; ERα BAR: fixed, permeabilised MCF7-wt cells, 6F11 anti-ERα primary antibody, HRP-conjugated secondary antibody, biotin phenol and H2O2 for 3 min; streptavidin beads, label-free MS, n = 3; control: primary antibody omitted.
Another experiment deals with ERα-Flag (UniProt P03372). Kind of experiment: proximity labelling; ERα-Flag BAR (biotinylation by antibody recognition): fixed, permeabilised MCF7-TO cells, anti-Flag primary antibody, HRP-conjugated secondary antibody, biotin phenol and H2O2 for 3 min; streptavidin beads, label-free MS, n = 3; control: doxycycline-treated cells without ERα-Flag.

Take SMARCD2 (from UniProt Q92925 1-531): the binding result in experiment [1] and in experiment [2] was “binds” each time.
Consider SMARCE1 (from UniProt Q969G3 1-411), for which the binding entry in experiment [1] and in experiment [2] was “binds” in each case.
For CBX3 (from UniProt Q13185 1-183), the binding entry (in experiment [3]; with ERα-Flag) was “binds” in each case.
For RCOR1 (from UniProt Q9UKL0 1-485), the binding result in experiment [1] and in experiment [2] was “binds” throughout.
Regarding MED1 (from UniProt Q15648 1-1581), the binding entry in experiment [2] is “binds”.
Still for that read-out and setting: in the case of UIMC1 (from UniProt Q96RL1 1-719) it was “binds”.
For the substance DDX17 (from UniProt Q92841 1-729), the binding result (in experiment [1]; in experiment [2]; with ERα-Flag) was “binds” in each case.
With PELP1 (from UniProt Q8IZL8 1-1130), the binding entry (in experiment [1]; in experiment [2]; in experiment [3]; with ERα-Flag) was “binds” throughout.
With GATA3 (from UniProt P23771 1-443), the binding entry in experiment [1] was “binds”.
On to NCOR1 (from UniProt O75376 1-2440), for which the binding entry (in experiment [3]; with ERα-Flag) was “binds” each time.
As to “SETD1A (from UniProt O15047 1-1707) (enzyme)”, the binding entry in experiment [1] and in experiment [2] was “binds” throughout.
“RING1 (from UniProt Q06587 1-406) (enzyme)”: the binding result (in experiment [1]; in experiment [2]; in experiment [3]; with ERα-Flag) was “binds” throughout.
As for GREB1 (from UniProt Q4ZG55 1-1949), in experiment [1], the binding result is “binds”.
